Binding data for one substance are collected here from paper PMC6179307 (2018).

The chains behind the UniProt entries cited, without tags or fusion partners.
UniProt Q9XTT9: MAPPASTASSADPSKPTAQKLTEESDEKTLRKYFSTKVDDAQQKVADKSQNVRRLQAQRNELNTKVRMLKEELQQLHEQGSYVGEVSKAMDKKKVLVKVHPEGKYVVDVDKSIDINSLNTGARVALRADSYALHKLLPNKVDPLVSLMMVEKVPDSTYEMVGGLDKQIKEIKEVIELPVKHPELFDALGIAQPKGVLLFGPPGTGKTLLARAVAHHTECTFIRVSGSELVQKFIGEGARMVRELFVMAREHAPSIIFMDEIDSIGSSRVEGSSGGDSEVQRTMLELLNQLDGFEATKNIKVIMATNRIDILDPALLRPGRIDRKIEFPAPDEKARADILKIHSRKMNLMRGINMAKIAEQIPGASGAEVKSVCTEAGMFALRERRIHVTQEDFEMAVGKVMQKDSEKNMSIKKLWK

No constants are given. Whether binding was seen depends on the method and setting. In cells and extracts the contact can be indirect. Some entries that bind do so weakly or less than the wild type.

The target of the assay is T1, ELT-2::VN173 (C. elegans) (UniProt Q10655).
T1 sequence: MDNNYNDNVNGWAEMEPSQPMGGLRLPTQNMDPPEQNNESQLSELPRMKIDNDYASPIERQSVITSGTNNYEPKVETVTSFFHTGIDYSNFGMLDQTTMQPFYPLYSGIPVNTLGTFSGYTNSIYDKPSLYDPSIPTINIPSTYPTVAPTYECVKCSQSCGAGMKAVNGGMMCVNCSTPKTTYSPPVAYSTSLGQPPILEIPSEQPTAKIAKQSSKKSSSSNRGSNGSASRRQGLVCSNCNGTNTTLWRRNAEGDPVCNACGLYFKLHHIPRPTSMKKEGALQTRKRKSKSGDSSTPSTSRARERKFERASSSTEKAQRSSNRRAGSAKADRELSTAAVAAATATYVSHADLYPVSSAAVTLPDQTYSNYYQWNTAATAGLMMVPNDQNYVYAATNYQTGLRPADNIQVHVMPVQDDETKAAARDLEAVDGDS
Put plainly: split reporter; BiFC in living transgenic C. elegans; VN173 and VC155 fusions under Phsp-16.41; heat shock 3 h at 33°C, recovery 12 hours at 20°C; fluorescence stereomicroscope, Copas Biosort for quantification; also after RNAi of selected proteasome genes.

With “RPT-6::VC155 (from UniProt Q9XTT9 1-416)”, the binding entry was “binds”.
